Results as given in ChEMBL document CHEMBL4316593 (Eur J Med Chem, 2019).
Further values from the same series stand in other lists.

What was measured:
Type in all cases: cell-based
Details in all cases: U-87MG ATCC
[1] = Inhibition of RTK/PI3K/AKT/mTOR signaling in human U87 cells assessed as up regulation of ADP ribosylation factor interacting protein 2 gene expression at cytotoxic IC50 measured after 48 hrs relative to control
[2] = Inhibition of RTK/PI3K/AKT/mTOR signaling in human U87 cells assessed as up regulation of B3GALT5 gene expression at cytotoxic IC50 measured after 48 hrs relative to control
[3] = Inhibition of RTK/PI3K/AKT/mTOR signaling in human U87 cells assessed as up regulation of serum/glucocorticoid regulated kinase family member 3 gene expression at cytotoxic IC50 measured after 48 hrs relative to control
[4] = Inhibition of RTK/PI3K/AKT/mTOR signaling in human U87 cells assessed as up regulation of DMKN gene expression at cytotoxic IC50 measured after 48 hrs relative to control
[5] = Inhibition of RTK/PI3K/AKT/mTOR signaling in human U87 cells assessed as down regulation of OSBPL6 gene expression at cytotoxic IC50 measured after 48 hrs relative to control
[6] = Inhibition of RTK/PI3K/AKT/mTOR signaling in human U87 cells assessed as up regulation of solute carrier family 39 member 14 gene expression at cytotoxic IC50 measured after 48 hrs relative to control
[7] = Inhibition of RTK/PI3K/AKT/mTOR signaling in human U87 cells assessed as up regulation of DNAJA3 gene expression at cytotoxic IC50 measured after 48 hrs relative to control
[8] = Inhibition of RTK/PI3K/AKT/mTOR signaling in human U87 cells assessed as up regulation of transforming growth factor alpha gene expression at cytotoxic IC50 measured after 48 hrs relative to control
[9] = Inhibition of RTK/PI3K/AKT/mTOR signaling in human U87 cells assessed as up regulation of exportin for tRNA gene expression at cytotoxic IC50 measured after 48 hrs relative to control
[10] = Inhibition of RTK/PI3K/AKT/mTOR signaling in human U87 cells assessed as down regulation of EAF1 gene expression at cytotoxic IC50 measured after 48 hrs relative to control
[11] = Inhibition of RTK/PI3K/AKT/mTOR signaling in human U87 cells assessed as down regulation of SH3TC1 gene expression at cytotoxic IC50 measured after 48 hrs relative to control
[12] = Inhibition of RTK/PI3K/AKT/mTOR signaling in human U87 cells assessed as up regulation of FLYWCH-type zinc finger 1 gene expression at cytotoxic IC50 measured after 48 hrs relative to control
[13] = Inhibition of RTK/PI3K/AKT/mTOR signaling in human U87 cells assessed as down regulation of ZNF92 gene expression at cytotoxic IC50 measured after 48 hrs relative to control
[14] = Inhibition of RTK/PI3K/AKT/mTOR signaling in human U87 cells assessed as up regulation of churchill domain containing 1 gene expression at cytotoxic IC50 measured after 48 hrs relative to control
[15] = Inhibition of RTK/PI3K/AKT/mTOR signaling in human U87 cells assessed as down regulation of CHGA gene expression at cytotoxic IC50 measured after 48 hrs relative to control
[16] = Inhibition of RTK/PI3K/AKT/mTOR signaling in human U87 cells assessed as down regulation of GALNT10 gene expression at cytotoxic IC50 measured after 48 hrs relative to control
[17] = Inhibition of RTK/PI3K/AKT/mTOR signaling in human U87 cells assessed as down regulation of MMADHC gene expression at cytotoxic IC50 measured after 48 hrs relative to control
[18] = Inhibition of RTK/PI3K/AKT/mTOR signaling in human U87 cells assessed as down regulation of RNF125 gene expression at cytotoxic IC50 measured after 48 hrs relative to control
[19] = Inhibition of RTK/PI3K/AKT/mTOR signaling in human U87 cells assessed as down regulation of HNRNPH3 gene expression at cytotoxic IC50 measured after 48 hrs relative to control
[20] = Inhibition of RTK/PI3K/AKT/mTOR signaling in human U87 cells assessed as up regulation of heat shock protein 90 beta family member 1 gene expression at cytotoxic IC50 measured after 48 hrs relative to control
[21] = Inhibition of RTK/PI3K/AKT/mTOR signaling in human U87 cells assessed as down regulation of MEAF6 gene expression at cytotoxic IC50 measured after 48 hrs relative to control
[22] = Inhibition of RTK/PI3K/AKT/mTOR signaling in human U87 cells assessed as up regulation of MET proto-oncogene, receptor tyrosine kinase gene expression at cytotoxic IC50 measured after 48 hrs relative to control
[23] = Inhibition of RTK/PI3K/AKT/mTOR signaling in human U87 cells assessed as down regulation of BRD2 gene expression at cytotoxic IC50 measured after 48 hrs relative to control
[24] = Inhibition of RTK/PI3K/AKT/mTOR signaling in human U87 cells assessed as up regulation of mercaptopyruvate sulfurtransferase gene expression at cytotoxic IC50 measured after 48 hrs relative to control
[25] = Inhibition of RTK/PI3K/AKT/mTOR signaling in human U87 cells assessed as up regulation of MAFG-AS1 gene expression at cytotoxic IC50 measured after 48 hrs relative to control
[26] = Inhibition of RTK/PI3K/AKT/mTOR signaling in human U87 cells assessed as up regulation of METAP1 gene expression at cytotoxic IC50 measured after 48 hrs relative to control
[27] = Inhibition of RTK/PI3K/AKT/mTOR signaling in human U87 cells assessed as down regulation of VPS37A gene expression at cytotoxic IC50 measured after 48 hrs relative to control
[28] = Inhibition of RTK/PI3K/AKT/mTOR signaling in human U87 cells assessed as down regulation of ATP13A2 gene expression at cytotoxic IC50 measured after 48 hrs relative to control
[29] = Inhibition of RTK/PI3K/AKT/mTOR signaling in human U87 cells assessed as down regulation of CMAS gene expression at cytotoxic IC50 measured after 48 hrs relative to control
[30] = Inhibition of RTK/PI3K/AKT/mTOR signaling in human U87 cells assessed as down regulation of STK40 gene expression at cytotoxic IC50 measured after 48 hrs relative to control
[31] = Inhibition of RTK/PI3K/AKT/mTOR signaling in human U87 cells assessed as up regulation of ST13 gene expression at cytotoxic IC50 measured after 48 hrs relative to control
[32] = Inhibition of RTK/PI3K/AKT/mTOR signaling in human U87 cells assessed as down regulation of NSF gene expression at cytotoxic IC50 measured after 48 hrs relative to control

With CC(=O)C(=NNc1ccccc1C#N)C(C)=O the log2FC [1] was 0.779, the log2FC [2] was 2.92 and the log2FC [3] was 1.38. The log2FC [4] was 0.637, the log2FC [5] was -0.841 and the log2FC [6] was 0.749. It also gave a log2FC [7] of 0.498, a log2FC [8] of 0.865 and a log2FC [9] of 0.998. For the same molecule, the log2FC [10] was -0.976, the log2FC [11] was -1.59 and the log2FC [12] was 0.703. The log2FC [13] was -2.41, the log2FC [14] was 1.28 and the log2FC [15] was -6.54. For the same molecule, the log2FC [16] was -0.715, the log2FC [17] was -0.395 and the log2FC [18] was -0.989. The log2FC [19] was -0.581, the log2FC [20] was 1.18 and the log2FC [21] was -0.642. For the same molecule, the log2FC [22] was 0.717, the log2FC [23] was -0.697 and the log2FC [24] was 1.11. The log2FC [25] was 1.86, the log2FC [26] was 0.522 and the log2FC [27] was -0.744. The log2FC [28] was -0.602, the log2FC [29] was -0.55 and the log2FC [30] was -0.574. The log2FC [31] was 0.428 and the log2FC [32] was -0.559.
